Source: publication doi:10.1101/2024.09.08.611708
No constants are given. Whether binding was seen depends on the method and setting. In cells and extracts the contact can be indirect. Binding can be weak; no strength is given.

Target: T1, AtATG8A (recombinant, pull-down) (A. thaliana) (UniProt Q8LEM4)
T1 sequence: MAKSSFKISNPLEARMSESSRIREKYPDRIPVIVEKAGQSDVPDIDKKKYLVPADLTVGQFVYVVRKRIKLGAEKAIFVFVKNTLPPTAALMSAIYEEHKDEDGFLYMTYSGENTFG
Assay: pull-down

| binding | Substance |
| --- | --- |
| binds | AtCESAR2 (recombinant) (A. thaliana) |
| no binding | AtCESAR2^4A (A. thaliana) |
